# PubChem BioAssay AID493014 (National Center for Advancing Translational Sciences (NCATS), 2011)
# “And” between values parts separate entries of the source, which are not always exact repeats. Identical values can stand only once. Some of the results follow. Further columns of the screen follow, without active or inactive calls. Most of these compounds were active or inconclusive in the main read-out, so they are no random draw. Potencies come from curve fits of mixed quality, noted in brackets.
# Experiment: qHTS Assay to Find Inhibitors of Chronic Active B-Cell Receptor Signaling
# Conditions: ABC-DLBCL IkBa-CBG/CBR reporter, luminescence ratio (green luciferase fused to IkBa over red control in TMD8 lymphoma cells), 4 h
# Summary of the method: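 TMD8 human ABC-DLBCL cells with doxycycline-inducible IκBα–green luciferase fusion and unfused red luciferase, in 0.5% FBS medium; compounds up to 46 uM, 4 h at 37C. Green/red luminescence ratio, filter-overlap corrected, fitted to concentration-response curves.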
# [1] = measured here: CBR red luminescence, cell number
# [2] = measured here: IkBa-CBG green luminescence
compound,measurement,setting,value
CCOC(=O)c1c(NS(=O)(=O)Cc2ccccc2)sc2c1CCCC2,AC50,[1],"1.84 µM [rising, partial curve, poor fit]"
CCCCC(=O)Nc1ccccc1C(C)C,AC50,[1],"22.4 µM [rising, partial curve, poor fit]"
CCOC(=O)c1c(NC(=O)Cn2nnc3ccccc32)sc2c1CCC(C)C2 (stereo not given),AC50,[1],"12.6 µM [falling, partial curve]"
O=C(Cc1cccs1)Nc1ccccc1NC(=O)Cc1cccs1,AC50,[1],"11.6 µM [rising, partial curve, poor fit]"
O=C(c1ccc(S(=O)(=O)Cc2cc(F)ccc2F)c([N+](=O)[O-])c1)N1CCCCC1,AC50,[1],"2.59 µM [falling, full curve, poor fit]"
CCOC(=O)c1nn(-c2ccc3ccccc3c2)cc1O,AC50,[1],"11.2 µM [falling, single point]"
O=C(Nc1ccc(N2CCCCC2)c(Cl)c1)c1ccc2c(c1)OCCO2,AC50,[1],"14.6 µM [rising, partial curve]"
O=C(Nc1scc(-c2ccccc2)c1C(=O)O)c1ccco1,AC50,[1],"14.6 µM [falling, partial curve]"
O=C(Nc1ccc(S(=O)(=O)NCc2ccccc2)cc1)Nc1ccc2c(c1)OCO2,AC50,[1],"25.9 µM [rising, partial curve, poor fit]"
CCOc1ccc(C2=CC(c3cc(Br)ccc3F)n3ncnc3N2)cc1Cl (stereo not given),AC50,[1],"35.5 µM [falling, single point]"
ClCC1NCC(c2ccccc2Cl)c2c1[nH]c1ccccc21 (stereo not given),AC50,[1],"17.8 µM [falling, partial curve, poor fit]"
COc1ccccc1-c1cc(C(=O)Nc2ccccc2SC)no1,AC50,[1],"0.0282 µM [falling, full curve, poor fit]"
C=CCn1c2ccccc2c2nnc(SCc3ccc4nonc4c3)nc21,AC50,[1],"6.51 µM [falling, single point]"
COc1ccccc1C(=O)N/N=C(\C)CC(=O)Nc1ccc(Nc2ccccc2)cc1,AC50,[1],"0.794 µM [falling, full curve, poor fit]"
CC[C@H](CO)Nc1nc(Nc2cccc(Cl)c2)c2ncn(C(C)C)c2n1,AC50,[1],"2.24 µM [falling, partial curve, poor fit]"
CC1CCc2[nH]c3ccc(C(=O)O)cc3c2C1 (stereo not given),AC50,[1],"0.447 µM [falling, full curve, poor fit]"
Cn1c(CCCNC(=O)c2ccccc2)nc2ccccc21,AC50,[1],"23.1 µM [rising, partial curve, poor fit]"
O=c1oc(C2(O)CCCCC2)cc2ccc(Br)cc12,AC50,[1],"2.91 µM [rising, partial curve, poor fit]"
CSc1cccc(CN2CCC(CO)(Cc3cccc(C(F)(F)F)c3)CC2)c1,AC50,[1],"11.2 µM [falling, partial curve, poor fit]"
CCN(C(=O)COC(=O)c1cc2c(s1)CCCC2)c1c(N)n(Cc2ccccc2)c(=O)[nH]c1=O,AC50,[1],"1.16 µM [rising, partial curve, poor fit]"
COc1ccc(/C=N/NC(=O)c2cccc(NC(C)=O)c2)c(C(=O)O)c1OC,AC50,[1],"7.08 µM [falling, partial curve]"
COc1ccccc1NC(=O)Nc1nc(CC(=O)N2CCN(c3ccc(F)cc3)CC2)cs1,AC50,[1],"2.06 µM [rising, partial curve]"
CCC(=O)Nc1ccccc1C(=O)OCC(=O)Nc1ccc(S(N)(=O)=O)cc1,AC50,[1],"11.6 µM [falling, single point]"
O=C(CSc1nc2ccccc2n1-c1ccccc1)Nc1ncc(Cl)cc1Cl,AC50,[1],"18.4 µM [falling, partial curve]"
Cc1ccc(-n2c(Cl)c(Cl)nc(Cl)c2=O)cc1,AC50,[1],"5.17 µM [falling, full curve]"
same,AC50,[2],"4.61 µM [rising, full curve, poor fit]"
CCOC(=O)C1=C(C)N(C)C(=O)NC1c1ccc(C)s1 (stereo not given),AC50,[1],"11.6 µM [rising, partial curve, poor fit]"
COc1ccc(-c2c(C)nn3c(Cl)c(C)c(C)nc23)cc1,AC50,[1],"3.16 µM [rising, partial curve, poor fit]"
COc1ccc(CC(=O)Nc2ccc(C(=O)NCC(C)C)cc2)cc1,AC50,[1],"7.08 µM [rising, full curve]"
Cc1ccc(S(=O)(=O)N2CCOCC2)cc1NC(=O)C1=NN(c2ccccc2)C(=O)CC1,AC50,[1],"2.51 µM [rising, partial curve, poor fit]"
O=C(N/N=C/C1CC=CCC1)c1ccccc1O (stereo not given),AC50,[1],"3.16 µM [falling, full curve]"
O=C(CSc1cccc2cccnc12)NCc1ccco1,AC50,[1],"5.62 µM [rising, single point]"
CCN(CC)S(=O)(=O)c1cccc(N=Nc2sc(N)nc2C)c1,AC50,[2],"8.91 µM [falling, partial curve, poor fit]"
CCN(CC(=O)NCc1ccc(F)cc1)C(=O)COc1ccc2ccccc2c1,AC50,[1],"13 µM [falling, partial curve]"
COc1ccc(C)cc1N(CC(=O)N/N=C/c1ccc2c(c1)OCO2)S(C)(=O)=O,AC50,[2],"12.6 µM [rising, partial curve, poor fit]"
CCc1ccccc1NC(=O)COc1cccc(-n2cnnn2)c1,AC50,[1],"11.2 µM [falling, partial curve, poor fit]"
CCOC(=O)c1sc(NC(=O)c2cccc(S(=O)(=O)N3CCN(C)CC3)c2)cc1C,AC50,[1],"22.4 µM [falling, partial curve, poor fit]"
COC(=O)c1ccc(/C=N/NC(=O)c2ccccc2Cl)cc1,AC50,[1],"9.2 µM [falling, partial curve]"
COc1ccc(OC)c(NC(=O)c2ccc(NC3=NC4CS(=O)(=O)CC4S3)cc2)c1 (stereo not given),AC50,[1],"0.891 µM [rising, full curve]"
O=C(C[n+]1ccccc1)c1ccc(NC(=O)c2ccccc2)cc1,AC50,[1],"8.91 µM [falling, single point]"
O=C(Nc1ccc(N2CCCC2)c(Cl)c1)c1ccccc1[N+](=O)[O-],AC50,[1],"2.31 µM [falling, partial curve, poor fit]"
CCOc1cc(C(=O)OCC(=O)Nc2ccc(Cl)cn2)ccc1OCC(=O)N1CCOCC1,AC50,[1],"4.11 µM [rising, partial curve, poor fit]"
CCCn1c2ccccc2c2cnn(CC(=O)NCCCN3CCCC(C)C3)c(=O)c21 (stereo not given),AC50,[1],"11.2 µM [falling, partial curve, poor fit]"
COc1ccccc1N1C(=O)C(Cl)=C(Nc2ccccc2O)C1=O,AC50,[1],"0.794 µM [falling, full curve]"
Cc1ccc(C(=O)Nc2nc(-c3ccc(F)cc3)cs2)o1,AC50,[1],"0.112 µM [falling, full curve, poor fit]"
O=C(Oc1ccccc1)c1cc2ccccc2oc1=O,AC50,[1],"5.01 µM [rising, full curve, poor fit]"
Cc1cc(C)c(S(=O)(=O)c2ccccc2)c(OC(=O)c2c(F)cccc2Cl)n1,AC50,[1],"23.1 µM [falling, single point]"
COc1c(Cl)cnn(-c2ccc(C)cc2)c1=O,AC50,[1],"20.6 µM [falling, partial curve]"
O=C(O)C1C2C=CC(C2)C1C(=O)NCCCN1CCOCC1 (stereo not given),AC50,[1],"32.6 µM [falling, single point]"
CCC/C(C#Cc1cc(OC)cc(OC)c1)=C1/c2ccccc2C(=O)N1c1ccccc1,AC50,[1],"4.11 µM [falling, full curve]"
Cc1ccc(C2(CCNC(C)c3cccs3)CCOC(C(C)C)C2)cc1 (stereo not given),AC50,[1],"35.5 µM [falling, single point]"
COc1ccc(N=c2sc3ccccc3n2C)cc1,AC50,[1],"16.4 µM [rising, single point]"
Cc1ccc(NC(=O)CN2C(=O)S/C(=C\c3ccccn3)C2=O)cc1C,AC50,[1],"4.47 µM [falling, partial curve, poor fit]"
CCC(=O)c1ccc(N2CCN(C(=O)c3cccs3)CC2)c(F)c1,AC50,[1],"6.31 µM [rising, single point]"
COC(=O)c1sccc1NC(=O)c1ccc(Br)s1,AC50,[1],"25.9 µM [rising, partial curve, poor fit]"
CCOC(=O)c1nnc(-c2ccccc2)nc1Sc1c(Cl)cccc1Cl,AC50,[1],"2.31 µM [falling, partial curve, poor fit]"
c1cncc(-c2ccc3ncnc(NCc4cccs4)c3c2)c1,AC50,[1],"8.2 µM [rising, partial curve] and 13 µM [rising, partial curve, poor fit]"
same,AC50,[2],"20.6 µM [falling, partial curve, poor fit] and 10.3 µM [falling, partial curve, poor fit]"
O=C(CCN1C(=O)c2ccccc2S1(=O)=O)Nc1cc(Cl)ccc1Cl,AC50,[1],"7.31 µM [rising, partial curve]"
COC(=O)c1ccc(COc2ccc(/C=N/NC(N)=S)cc2)o1,AC50,[1],"7.08 µM [falling, full curve]"
c1coc(CSSCc2ccco2)c1,AC50,[1],"14.6 µM [rising, single point]"
Cn1c(N2CCN(C(=O)C34CC5CC(CC(C5)C3)C4)CC2)nc2ccccc21,AC50,[1],"29.1 µM [falling, single point]"
Cc1cc(C)c2cc(C(=O)N3CCN(c4ncccc4C(F)(F)F)CC3)[nH]c2c1,AC50,[1],"6.31 µM [falling, single point]"
O=C(Nc1nccs1)c1ccc2c(c1)OCO2,AC50,[1],"20 µM [falling, single point]"
Oc1ccc(/C=N/Nc2ccc(C(F)(F)F)cn2)c(O)c1,AC50,[1],"2.82 µM [rising, single point]"
